Article PMC5618690, “Structural and functional analysis of two small leucine-rich repeat proteoglycans, fibromodulin and chondroadherin” (Matrix Biology, 2017)

Target: acid-solubilized collagen II
Experiment: ELISA; inhibition: collagen II coated at 10 μg/ml; 10 μg/ml biotinylated chondroadherin pre-incubated 1 h with II-26 or III-8 at 50, 100, 200, 400 μg/ml; both purified

B1: biotinylated human chondroadherin (protein, UniProt O15335 23-359)
chain: APLACPQNCHCHSDLQHVICDKVGLQKIPKVSEKTKLLNLQRNNFPVLAANSFRAMPNLVSLHLQHCQIREVAAGAFRGLKQLIYLYLSHNDIRVLRAGAFDDLTELTYLYLDHNKVTELPRGLLSPLVNLFILQLNNNKIRELRAGAFQGAKDLRWLYLSENALSSLQPGALDDVENLAKFHVDRNQLSSYPSAALSKLRVVEELKLSHNPLKSIPDNAFQSFGRYLETLWLDNTNLEKFSDGAFLGVTTLKHVHLENNRLNQLPSNFPFDSLETLALTNNPWKCTCQLRGLRRWLEAKASRPDATCASPAKFKGQHIRDTDAFRSCKFPTKRSKKAGRH
modifications: biotin (EZ-link reagent), sites not stated
binding: binds

These are yes or no findings as the source states them, for the method shown. A result given as binding can be weak or reduced; the word gives no strength.
